PubChem BioAssay AID493246, Drosophila RNAi Screening Center | 2011
Screen: 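Identify essential fly genes by loss of cell viability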 (primary screen). System: Drosophila Kc and S2R+ cells. Reagent: long dsRNA against Drosophila genes. Detection: 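Cell number per well after knock-down, printed as raw plate values; calls were based on per-plate z-scores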. Direction: Kc cell number and S2R+ cell number: higher = more cells remaining. Call rule: 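Active when the per-plate z-score of cell number is 3 or more in the direction of fewer cells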.
The deposit covers about 21,000 reagents; below is a random part of those that have a named target and a result. Over the whole deposit, 429 (2%) are marked active. 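Values are raw and not normalised between plates; calls rest on per-plate z-scores that were not deposited.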 A plus sign joins genes that one reagent is predicted to hit. Reagent sequences are not shown. Not given: the amount of reagent, the time to read-out.

no.	Gene	PubChem SID	Kc cell number, rep 1	Kc cell number, rep 2	S2R+ cell number, rep 1	S2R+ cell number, rep 2	activity call
1	COX3 (retired record) (GeneID 192471)	SID104201071	1.57e6	1.59e6	1.19e6	1.29e6	inactive
2	mura (GeneID 41145)	SID104196275	1.58e6	1.60e6	1.11e6	1.21e6	inactive
3	mura (GeneID 41145)	SID104196276	2.19e5	2.41e5	3.93e5	4.68e5	active
4	sals (GeneID 41377)	SID104194717	1.48e6	1.53e6	1.24e6	1.25e6	inactive
5	sals (GeneID 41377)	SID104195905	1.45e6	1.43e6	1.21e6	1.24e6	inactive
6	wfs1 (GeneID 42679)	SID104195468	1.51e6	1.51e6	1.01e6	1.09e6	inactive
7	wech (GeneID 44653)	SID104186398	1.37e6	1.44e6	1.11e6	1.16e6	inactive
8	spirit (GeneID 31797)	SID104197994	5.47e5		8.84e5		inactive
9	PNUTS (GeneID 33270)	SID104180430	1.23e6	1.21e6	7.54e5	8.85e5	inactive
10	bnb (GeneID 32872)	SID104200106	1.59e6	1.61e6	1.13e6	1.23e6	inactive
11	CG42324 (GeneID 38430)	SID104188223	1.41e6	1.26e6	9.30e5	1.14e6	inactive
12	CG42324 (GeneID 38430)	SID104188224	1.41e6	1.27e6	9.73e5	1.09e6	inactive
13	mesh (GeneID 43688)	SID104194890	1.54e6	1.58e6	1.07e6	1.24e6	inactive
14	mesh (GeneID 43688)	SID104194891	1.53e6	1.53e6	1.13e6	1.21e6	inactive
15	CG7567 (GeneID 43479)	SID104196050	1.45e6	1.44e6	9.97e5	1.10e6	inactive
16	CG18284 (GeneID 34460)	SID104182453	1.36e6	1.23e6	1.10e6	1.02e6	inactive
17	CG18284 (GeneID 34460)	SID104200548	1.23e6	1.49e6	1.11e6	1.15e6	inactive
18	CG42741 (GeneID 37654)	SID104184385	1.70e6	1.75e6	1.29e6	1.47e6	inactive
19	CG12078 (GeneID 38401)	SID104188034	1.50e6	1.31e6	1.01e6	1.26e6	inactive
20	CG14331 (GeneID 42099)	SID104194602	1.20e6	1.25e6	1.13e6	1.24e6	inactive
21	Jon25Bi (GeneID 33708)	SID104183226	1.57e6	1.49e6	1.17e6	1.29e6	inactive
22	CG11162 (GeneID 32325)	SID104199183	1.63e6	1.54e6	1.16e6	1.24e6	inactive
23	MTA1-like (GeneID 40693)	SID104192174	1.55e6	1.67e6	1.26e6	1.32e6	inactive
24	CG5071 (GeneID 43090)	SID104195502	1.63e6	1.57e6	1.02e6	1.10e6	inactive
25	p38b (GeneID 34780)	SID104183378	1.51e6	1.62e6	1.24e6	1.31e6	inactive
26	eIF2beta (GeneID 39433)	SID104191133	9.70e5	1.06e6	8.71e5	1.04e6	inactive
27	CG11180 (GeneID 37330)	SID104185847	1.39e6	1.44e6	1.10e6	1.15e6	inactive
28	akirin (GeneID 38821)	SID104190792	1.22e6	1.38e6	7.89e5	7.71e5	inactive
29	in (GeneID 40246)	SID104191680	1.40e6	1.64e6	1.24e6	1.31e6	inactive
30	Snx27 (GeneID 31493)	SID104197578	1.57e6	1.51e6	1.02e6	1.16e6	inactive
31	Snx27 (GeneID 31493)	SID104198074	1.45e6	1.44e6	9.75e5	1.07e6	inactive
32	Snx27 (GeneID 31493)	SID104198076	1.53e6	1.50e6	1.03e6	1.14e6	inactive
33	CG6933 (GeneID 40214)	SID104190543	1.48e6	1.53e6	1.22e6	1.26e6	inactive
34	Pfdn5 (GeneID 42647)	SID104195975	1.47e6	1.58e6	1.14e6	1.19e6	inactive
35	Ugt37E1 (GeneID 53512)	SID104182040	1.56e6	1.66e6	1.20e6	1.29e6	inactive
36	CG14339 (GeneID 33286)	SID104180161	1.49e6	1.51e6	1.03e6	1.17e6	inactive
37	Taf10b + Taf10	SID104180585	1.50e6	1.55e6	1.08e6	1.21e6	inactive
38	CG17652 (GeneID 33353)	SID104180303	1.64e6	1.61e6	1.09e6	1.24e6	inactive
39	Gel (GeneID 46008)	SID104192142	1.73e6	1.67e6	1.26e6	1.36e6	inactive
40	CG7794 (GeneID 42159)	SID104196105	1.38e6	1.35e6	1.05e6	1.16e6	inactive
41	sac (GeneID 40568)	SID104192029	1.32e6	1.45e6	1.27e6	1.35e6	inactive
42	CG7945 (GeneID 39679)	SID104190726	1.40e6	1.43e6	1.15e6	1.23e6	inactive
43	CG34168 (GeneID 50457)	SID104181730	1.67e6	1.92e6	1.28e6	1.42e6	inactive
44	CAH6 (GeneID 43701)	SID104195297	1.58e6	1.58e6	1.17e6	1.24e6	inactive
45	tamo (GeneID 37864)	SID104184238	1.45e6	1.50e6	1.15e6	1.25e6	inactive
46	Cog6 (GeneID 35953)	SID104186598	1.25e6	1.40e6	9.67e5	8.53e5	inactive
47	Vps13D (GeneID 39448)	SID104189610	1.17e6	1.39e6	1.18e6	1.27e6	inactive
48	Vps13D (GeneID 39448)	SID104189611	1.18e6	1.43e6	1.14e6	1.22e6	inactive
49	CG45002 (GeneID 32688)	SID104199936	1.53e6	1.51e6	1.07e6	1.17e6	inactive
50	CG11999 (GeneID 40637)	SID104191977	1.51e6	1.59e6	1.21e6	1.28e6	inactive
51	CG6565 (GeneID 34749)	SID104182762	1.41e6	1.58e6	1.44e6	1.54e6	inactive
52	Idgf3 (GeneID 34981)	SID104183143	1.36e6	1.51e6	1.26e6	1.26e6	inactive
53	CG15096 (GeneID 37170)	SID104186317	1.46e6	1.66e6	1.33e6	1.42e6	inactive
54	CG9849 (GeneID 37647)	SID104184365	1.71e6	1.82e6	1.43e6	1.52e6	inactive
55	Or59c (GeneID 37716)	SID104184425	1.57e6	1.68e6	1.39e6	1.40e6	inactive
56	egl (GeneID 37757)	SID104184474	1.74e6	1.81e6	1.25e6	1.34e6	inactive
57	CG43737 (GeneID 32448)	SID104199401	1.54e6	1.56e6	1.17e6	1.22e6	inactive
58	Cftr (GeneID 42928)	SID104195664	1.58e6	1.77e6	1.21e6	1.31e6	inactive
59	Pif1A + Pif1B	SID104193934	1.64e6	1.87e6	1.27e6	1.34e6	inactive
60	Pif1A + Pif1B	SID104194172	1.52e6	1.64e6	1.22e6	1.26e6	inactive
61	Pif1A + Pif1B	SID104194173	1.44e6	1.60e6	1.27e6	1.38e6	inactive

Reformatted: 6 of the entries above
Gene,PubChem SID,"Kc cell number, rep 1","Kc cell number, rep 2","S2R+ cell number, rep 1","S2R+ cell number, rep 2",activity call
CG14339 (GeneID 33286),SID104180161,1.49e6,1.51e6,1.03e6,1.17e6,inactive
Taf10b + Taf10,SID104180585,1.50e6,1.55e6,1.08e6,1.21e6,inactive
CG17652 (GeneID 33353),SID104180303,1.64e6,1.61e6,1.09e6,1.24e6,inactive
Gel (GeneID 46008),SID104192142,1.73e6,1.67e6,1.26e6,1.36e6,inactive
CG7794 (GeneID 42159),SID104196105,1.38e6,1.35e6,1.05e6,1.16e6,inactive
sac (GeneID 40568),SID104192029,1.32e6,1.45e6,1.27e6,1.35e6,inactive
